According to the supplement of paper PMC10849652:
Some of the results follow.

Sequences of proteins named here, by UniProt entry; tags and fusion partners are left off. A change or cut given only in a name is not applied to a line headed by its entry.
UniProt Q92968: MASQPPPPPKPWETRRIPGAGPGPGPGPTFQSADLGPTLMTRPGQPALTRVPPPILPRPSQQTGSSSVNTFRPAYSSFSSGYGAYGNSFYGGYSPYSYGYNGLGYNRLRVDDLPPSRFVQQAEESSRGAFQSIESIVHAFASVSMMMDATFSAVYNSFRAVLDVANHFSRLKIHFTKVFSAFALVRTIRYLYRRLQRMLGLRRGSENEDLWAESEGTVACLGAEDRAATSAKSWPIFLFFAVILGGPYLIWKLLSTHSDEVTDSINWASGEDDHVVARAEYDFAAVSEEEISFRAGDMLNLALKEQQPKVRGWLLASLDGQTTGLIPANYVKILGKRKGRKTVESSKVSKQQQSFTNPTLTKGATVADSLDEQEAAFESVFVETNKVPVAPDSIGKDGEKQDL
UniProt Q8NBM8: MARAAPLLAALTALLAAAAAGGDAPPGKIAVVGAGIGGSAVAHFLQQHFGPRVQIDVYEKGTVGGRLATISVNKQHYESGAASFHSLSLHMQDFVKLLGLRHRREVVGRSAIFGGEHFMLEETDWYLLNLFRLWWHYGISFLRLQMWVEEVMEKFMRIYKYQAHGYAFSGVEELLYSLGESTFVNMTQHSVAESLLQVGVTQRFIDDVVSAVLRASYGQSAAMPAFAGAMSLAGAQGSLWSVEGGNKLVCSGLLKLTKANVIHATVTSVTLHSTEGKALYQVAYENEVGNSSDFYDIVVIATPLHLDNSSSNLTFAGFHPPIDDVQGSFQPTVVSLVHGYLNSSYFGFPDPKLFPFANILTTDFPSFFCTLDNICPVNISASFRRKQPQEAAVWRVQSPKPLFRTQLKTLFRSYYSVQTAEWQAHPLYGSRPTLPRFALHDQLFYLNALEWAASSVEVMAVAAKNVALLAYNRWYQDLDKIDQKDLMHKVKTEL
UniProt Q15366, whole entry, looked up: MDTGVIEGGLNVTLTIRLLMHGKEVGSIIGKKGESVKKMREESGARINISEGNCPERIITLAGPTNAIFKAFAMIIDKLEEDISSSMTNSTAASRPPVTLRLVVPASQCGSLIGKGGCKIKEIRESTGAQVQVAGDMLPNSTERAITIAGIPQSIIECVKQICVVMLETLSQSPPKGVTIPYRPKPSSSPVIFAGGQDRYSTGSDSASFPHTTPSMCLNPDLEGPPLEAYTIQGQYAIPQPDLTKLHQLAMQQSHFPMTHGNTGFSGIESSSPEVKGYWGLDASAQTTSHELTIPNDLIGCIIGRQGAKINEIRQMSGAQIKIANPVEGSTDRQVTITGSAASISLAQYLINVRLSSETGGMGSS
UniProt Q9BUH6, whole entry, looked up: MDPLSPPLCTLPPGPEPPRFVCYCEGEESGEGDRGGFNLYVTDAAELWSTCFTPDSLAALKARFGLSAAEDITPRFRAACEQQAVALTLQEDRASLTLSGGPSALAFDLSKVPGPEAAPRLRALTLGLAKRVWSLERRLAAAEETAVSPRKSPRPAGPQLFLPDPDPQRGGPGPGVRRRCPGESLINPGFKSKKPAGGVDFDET
UniProt Q6VY07, whole entry, looked up: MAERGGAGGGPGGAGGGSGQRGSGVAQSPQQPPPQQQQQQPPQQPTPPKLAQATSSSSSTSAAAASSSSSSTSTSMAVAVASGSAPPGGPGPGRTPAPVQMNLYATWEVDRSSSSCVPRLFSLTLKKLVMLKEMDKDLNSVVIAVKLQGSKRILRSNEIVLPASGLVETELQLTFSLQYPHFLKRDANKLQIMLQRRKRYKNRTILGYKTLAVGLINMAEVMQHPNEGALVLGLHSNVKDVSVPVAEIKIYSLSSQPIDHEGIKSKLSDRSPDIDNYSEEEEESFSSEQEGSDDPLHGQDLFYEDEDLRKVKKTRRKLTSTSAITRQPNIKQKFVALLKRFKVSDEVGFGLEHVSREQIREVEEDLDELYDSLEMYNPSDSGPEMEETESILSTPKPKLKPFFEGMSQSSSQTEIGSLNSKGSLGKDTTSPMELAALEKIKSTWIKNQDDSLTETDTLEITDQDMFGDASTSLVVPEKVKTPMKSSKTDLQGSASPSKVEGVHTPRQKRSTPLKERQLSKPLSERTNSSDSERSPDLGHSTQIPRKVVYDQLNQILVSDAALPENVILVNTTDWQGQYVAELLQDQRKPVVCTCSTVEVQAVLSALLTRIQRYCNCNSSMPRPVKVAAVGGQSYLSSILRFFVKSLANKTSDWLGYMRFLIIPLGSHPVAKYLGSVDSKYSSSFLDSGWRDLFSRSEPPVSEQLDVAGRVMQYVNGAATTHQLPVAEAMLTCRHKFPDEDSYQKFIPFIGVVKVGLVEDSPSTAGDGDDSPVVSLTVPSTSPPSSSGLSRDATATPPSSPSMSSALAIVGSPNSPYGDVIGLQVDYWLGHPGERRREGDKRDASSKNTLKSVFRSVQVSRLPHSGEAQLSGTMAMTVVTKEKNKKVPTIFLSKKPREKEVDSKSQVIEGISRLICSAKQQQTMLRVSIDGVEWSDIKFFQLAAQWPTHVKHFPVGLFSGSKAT
UniProt O60829: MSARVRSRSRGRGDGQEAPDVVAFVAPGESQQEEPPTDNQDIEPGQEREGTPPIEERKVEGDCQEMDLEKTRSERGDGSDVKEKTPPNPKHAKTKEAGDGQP
UniProt Q15365, whole entry, looked up: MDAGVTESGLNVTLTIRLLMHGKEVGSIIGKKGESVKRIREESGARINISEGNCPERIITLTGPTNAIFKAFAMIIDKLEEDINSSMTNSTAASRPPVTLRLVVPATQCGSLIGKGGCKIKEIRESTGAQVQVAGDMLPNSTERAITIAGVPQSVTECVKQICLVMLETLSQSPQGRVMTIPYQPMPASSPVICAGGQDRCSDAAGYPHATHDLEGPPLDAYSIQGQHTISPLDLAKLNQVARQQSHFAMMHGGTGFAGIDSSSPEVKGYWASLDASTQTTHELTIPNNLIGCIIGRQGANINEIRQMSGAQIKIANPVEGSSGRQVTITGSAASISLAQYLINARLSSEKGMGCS
UniProt Q9H0N5: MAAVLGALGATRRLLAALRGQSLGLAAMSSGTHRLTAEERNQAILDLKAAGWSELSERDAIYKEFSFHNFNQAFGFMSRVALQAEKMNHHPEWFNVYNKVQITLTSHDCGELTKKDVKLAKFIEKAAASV
UniProt Q96RD7, whole entry, looked up: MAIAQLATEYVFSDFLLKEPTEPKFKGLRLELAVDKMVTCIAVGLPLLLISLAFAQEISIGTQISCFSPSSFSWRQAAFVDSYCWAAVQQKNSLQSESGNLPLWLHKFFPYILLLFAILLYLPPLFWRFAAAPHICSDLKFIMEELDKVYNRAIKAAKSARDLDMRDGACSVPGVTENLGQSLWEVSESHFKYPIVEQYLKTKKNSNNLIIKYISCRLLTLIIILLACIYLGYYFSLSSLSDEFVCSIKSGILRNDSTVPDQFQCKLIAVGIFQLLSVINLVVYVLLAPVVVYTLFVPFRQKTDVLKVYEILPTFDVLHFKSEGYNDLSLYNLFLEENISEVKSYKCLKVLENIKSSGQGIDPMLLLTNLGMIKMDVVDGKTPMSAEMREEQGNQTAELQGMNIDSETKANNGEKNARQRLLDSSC
UniProt Q9BZ23: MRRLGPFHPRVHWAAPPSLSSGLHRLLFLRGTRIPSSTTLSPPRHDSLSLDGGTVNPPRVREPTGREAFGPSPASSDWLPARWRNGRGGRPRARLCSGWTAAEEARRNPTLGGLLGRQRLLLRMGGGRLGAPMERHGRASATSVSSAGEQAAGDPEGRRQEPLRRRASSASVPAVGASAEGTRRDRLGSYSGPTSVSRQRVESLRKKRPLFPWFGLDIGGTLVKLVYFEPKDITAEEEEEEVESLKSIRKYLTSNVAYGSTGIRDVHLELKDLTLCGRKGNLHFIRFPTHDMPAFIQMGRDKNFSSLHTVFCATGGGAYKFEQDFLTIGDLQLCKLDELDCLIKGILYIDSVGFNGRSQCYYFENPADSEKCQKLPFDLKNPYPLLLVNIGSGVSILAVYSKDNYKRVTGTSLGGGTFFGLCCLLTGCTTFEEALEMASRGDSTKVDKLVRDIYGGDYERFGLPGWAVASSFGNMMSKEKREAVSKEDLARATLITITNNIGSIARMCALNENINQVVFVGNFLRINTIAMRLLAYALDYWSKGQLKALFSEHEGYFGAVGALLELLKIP
UniProt O00330, whole entry, looked up: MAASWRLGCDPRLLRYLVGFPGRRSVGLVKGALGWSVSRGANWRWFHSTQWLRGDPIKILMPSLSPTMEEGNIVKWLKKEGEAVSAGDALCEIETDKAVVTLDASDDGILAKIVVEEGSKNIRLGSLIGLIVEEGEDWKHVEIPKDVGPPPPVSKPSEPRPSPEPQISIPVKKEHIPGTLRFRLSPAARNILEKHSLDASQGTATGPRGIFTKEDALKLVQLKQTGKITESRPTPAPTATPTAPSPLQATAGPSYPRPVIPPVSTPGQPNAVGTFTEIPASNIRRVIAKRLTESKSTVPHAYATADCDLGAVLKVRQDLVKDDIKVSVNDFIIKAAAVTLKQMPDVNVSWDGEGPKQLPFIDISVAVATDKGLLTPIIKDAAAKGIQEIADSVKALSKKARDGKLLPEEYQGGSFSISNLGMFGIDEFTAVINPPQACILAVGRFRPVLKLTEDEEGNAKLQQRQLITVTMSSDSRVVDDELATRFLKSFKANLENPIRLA
UniProt Q8NEN9: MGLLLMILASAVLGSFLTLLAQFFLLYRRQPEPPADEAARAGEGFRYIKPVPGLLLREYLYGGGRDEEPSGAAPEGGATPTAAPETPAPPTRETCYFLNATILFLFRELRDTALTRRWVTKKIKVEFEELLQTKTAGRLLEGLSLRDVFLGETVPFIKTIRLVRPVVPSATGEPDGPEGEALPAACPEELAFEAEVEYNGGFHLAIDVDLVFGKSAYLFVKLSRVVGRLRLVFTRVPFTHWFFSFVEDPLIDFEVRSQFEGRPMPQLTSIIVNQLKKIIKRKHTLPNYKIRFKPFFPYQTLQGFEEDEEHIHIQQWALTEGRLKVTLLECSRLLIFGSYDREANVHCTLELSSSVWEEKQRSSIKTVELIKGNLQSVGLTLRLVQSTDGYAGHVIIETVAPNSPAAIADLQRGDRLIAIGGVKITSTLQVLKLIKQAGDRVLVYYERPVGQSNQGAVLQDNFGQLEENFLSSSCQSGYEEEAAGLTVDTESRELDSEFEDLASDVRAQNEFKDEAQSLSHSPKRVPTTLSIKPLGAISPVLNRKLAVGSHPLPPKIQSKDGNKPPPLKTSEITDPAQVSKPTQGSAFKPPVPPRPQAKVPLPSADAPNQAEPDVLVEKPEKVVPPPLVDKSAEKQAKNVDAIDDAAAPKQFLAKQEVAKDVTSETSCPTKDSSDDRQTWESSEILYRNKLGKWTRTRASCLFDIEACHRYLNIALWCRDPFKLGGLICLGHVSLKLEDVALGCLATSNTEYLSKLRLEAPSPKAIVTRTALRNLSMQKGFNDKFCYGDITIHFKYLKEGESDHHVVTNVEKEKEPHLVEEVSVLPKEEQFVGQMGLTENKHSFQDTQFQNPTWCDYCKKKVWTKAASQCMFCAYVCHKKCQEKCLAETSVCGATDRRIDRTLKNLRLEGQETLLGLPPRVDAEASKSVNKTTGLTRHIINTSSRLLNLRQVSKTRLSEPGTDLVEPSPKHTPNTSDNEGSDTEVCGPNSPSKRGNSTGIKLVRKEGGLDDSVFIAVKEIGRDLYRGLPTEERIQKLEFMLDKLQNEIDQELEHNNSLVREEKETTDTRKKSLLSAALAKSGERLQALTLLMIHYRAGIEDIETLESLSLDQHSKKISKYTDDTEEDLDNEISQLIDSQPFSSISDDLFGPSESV
UniProt P30086: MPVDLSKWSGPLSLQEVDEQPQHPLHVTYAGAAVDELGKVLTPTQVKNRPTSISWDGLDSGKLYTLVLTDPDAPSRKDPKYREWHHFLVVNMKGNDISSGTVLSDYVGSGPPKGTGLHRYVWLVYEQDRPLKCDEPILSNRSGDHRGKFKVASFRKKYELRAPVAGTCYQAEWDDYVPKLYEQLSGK
UniProt P22234: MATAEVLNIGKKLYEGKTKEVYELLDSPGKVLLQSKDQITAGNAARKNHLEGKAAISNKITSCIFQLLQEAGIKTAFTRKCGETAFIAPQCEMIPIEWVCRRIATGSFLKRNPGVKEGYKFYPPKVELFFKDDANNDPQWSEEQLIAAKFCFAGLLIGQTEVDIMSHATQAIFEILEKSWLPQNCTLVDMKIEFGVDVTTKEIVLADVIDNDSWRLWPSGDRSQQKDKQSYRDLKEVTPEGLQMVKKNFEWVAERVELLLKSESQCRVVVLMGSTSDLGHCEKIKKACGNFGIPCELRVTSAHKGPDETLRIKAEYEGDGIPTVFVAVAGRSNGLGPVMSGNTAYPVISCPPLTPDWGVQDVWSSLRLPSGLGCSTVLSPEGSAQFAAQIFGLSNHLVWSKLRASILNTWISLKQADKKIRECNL
UniProt O00764: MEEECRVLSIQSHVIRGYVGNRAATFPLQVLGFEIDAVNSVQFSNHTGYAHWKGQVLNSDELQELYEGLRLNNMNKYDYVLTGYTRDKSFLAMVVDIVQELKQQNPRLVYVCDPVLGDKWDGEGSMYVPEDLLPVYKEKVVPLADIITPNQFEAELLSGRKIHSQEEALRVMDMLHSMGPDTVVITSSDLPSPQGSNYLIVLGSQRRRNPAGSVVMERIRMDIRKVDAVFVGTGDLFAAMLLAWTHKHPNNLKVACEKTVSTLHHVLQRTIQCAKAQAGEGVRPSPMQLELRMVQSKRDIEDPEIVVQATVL

Key:
Assay in all cases: log2 fold change, soluble protein after heating vs DMSO (PISA); higher = thermal stabilisation; K562 cells, 10 uM, 30 min; active = over 0.2 and 3.5 SD of the protein, either way, in both replicates (recomputed)
erlotinib = compound: C#Cc1cccc(Nc2ncnc3cc(OCCOC)c(OCCOC)cc23)c1 [erlotinib]
How it was run: (§1)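 K562 cells at 2×10^6 cells/mL were exposed to 10 μM compound for 30 min, then aliquots were heated for 3 min across 48°C-58°C, pooled, and extracted in PBS containing 0.5% NP-40 at 4°C. The supernatant after 21,000xg for 90 min was taken as soluble protein and measured by TMTpro 16plex LC-MS/MS with channel sums equalised. Thermal stability is reported relative to control samples, with values from duplicates. Fold changes are given on a log2 scale.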

[1] = compound: C/C(=N\NC(=O)C1=CC(=CC=C1)S(=O)(=O)N2CCOCC2)/C3=C(C=CC(=C3)Cl)O
How it was run: as §1

[2] = compound: C1=CC(=C(C=C1Cl)C2=NC3=NC=CN=C3C(=N2)NC4=CC=NC=C4)F
How it was run: as §1

[3] = compound: C1=CC(=CC=C1C2=NC3=C(N2)C=C(C=C3)C(=O)N)OC4=CC=C(C=C4)Cl
How it was run: as §1

[4] = compound: C1=CC2=C(C=CC(=C2)/C=C\3/C(=O)NC(=NCC4=CC=CS4)S3)N=C1
How it was run: as §1

[5] = compound: C1=CC2=NC=CN=C2C=C1/C=C/3\C(=O)NC(=O)S3
How it was run: as §1

[6] = compound: C1=CC=C(C=C1)C2=NC(=C(N2)C3=CC=NC=C3)C4=CC(=C(C=C4)Cl)O
How it was run: as §1

[7] = compound: C1=CC=C2C(=C1)C3=NNC4=CC=CC(=C43)C2=O
How it was run: as §1

[8] = compound: C1CCN(C1)C(=O)NC2=CC=CC(=C2)NC3=NC=C(C(=N3)NCCC4=CN=CN4)Br
How it was run: as §1

[9] = compound: C1CN(CCC1(CC2=CC=C(C=C2)Cl)N)C3=NC=NC4=C3C=CN4
How it was run: as §1

Measured: log2 fold change

PEX13 (UniProt Q92968)
inactive: erlotinib 0.026 | [1] 0.03 | [2] 0.026 | [3] 0.009 | [4] 0.048 | [5] 0.073 | [6] -0.01 | [7] 0.005 | [8] 0.038 | [9] 0.036

PDIA4 (UniProt P13667)
inactive: erlotinib -0.057 | [1] -0.03 | [2] 0.021 | [3] 0.005 | [4] -0.043 | [5] 0.011 | [6] 0.032 | [7] 0.025 | [8] 0.01 | [9] -0.011

PCMT1 isoform 2 (UniProt P22061)
inactive: erlotinib 0.028 | [1] 0.05 | [2] 0.063 | [3] -0.009 | [4] 0.045 | [5] -0.002 | [6] 0.022 | [7] 0.021 | [8] 0.005 | [9] 0.009

PCYOX1L (UniProt Q8NBM8)
inactive: erlotinib -0.025 | [1] 0.027 | [2] -0.031 | [3] 0.013 | [4] 0.035 | [5] -0.003 | [6] 0.066 | [7] -0.016 | [8] 0.025 | [9] 0.057

PCNP (UniProt Q8WW12)
inactive: erlotinib 0.02 | [1] -0.021 | [2] -0.004 | [3] -0.028 | [4] 0.005 | [5] 0.033 | [6] 0.03 | [7] -0.011 | [8] 0.111 | [9] 0.071

PCBP2 isoform 3 (UniProt Q15366)
inactive: erlotinib -0.01 | [1] 0.087 | [2] 0.038 | [3] -0.039 | [4] 0.019 | [5] 0.025 | [6] 0.063 | [7] 0.017 | [8] -0.039 | [9] 0.01

PAXX (UniProt Q9BUH6)
inactive: erlotinib 0.018 | [1] -0.004 | [2] 0.021 | [3] 0.019 | [4] -0.038 | [5] 0.018 | [6] -0.096 | [7] -0.001 | [8] 0.014 | [9] 0.085

PES1 (UniProt O00541)
inactive: erlotinib 0.086 | [1] -0.018 | [2] -0.195 | [3] 0.113 | [4] -0.09 | [5] 0.02 | [6] -0.054 | [7] -0.13 | [8] -0.071 | [9] -0.173

PACS1 (UniProt Q6VY07)
inactive: erlotinib 0.027 | [1] 0.036 | [2] -0.049 | [3] 0.01 | [4] 0.016 | [5] -0.077 | [6] -0.039 | [7] -0.084 | [8] -0.048 | [9] -0.063

PDCD5 (UniProt O14737)
inactive: erlotinib -0.003 | [1] -0.003 | [2] 0.125 | [3] -0.015 | [4] -0.004 | [5] 0.074 | [6] -0.016 | [7] -0.001 | [8] 0.003 | [9] 0.004

PBDC1 (UniProt Q9BVG4)
inactive: erlotinib -0.027 | [1] 0.08 | [2] 0.036 | [3] -0.024 | [4] 0.068 | [5] -0.001 | [6] -0.005 | [7] -0.032 | [8] -0.044 | [9] -0.084

PAK4 (UniProt O96013)
inactive: erlotinib 0.155 | [1] -0.066 | [2] 0.017 | [3] -0.04 | [4] 0.015 | [5] 0.048 | [6] -0.068 | [7] -0.013 | [8] 0.062 | [9] -0.03

PAGE4 (UniProt O60829)
inactive: erlotinib 0.048 | [1] 0.038 | [2] 0.408 | [3] 0.048 | [4] -0.075 | [5] -0.154 | [6] 0.114 | [7] 0.031 | [8] -0.088 | [9] 0.15

PCBP1 (UniProt Q15365)
inactive: erlotinib -0.009 | [1] 0.092 | [2] 0.062 | [3] -0.031 | [4] 0.011 | [5] -0.002 | [6] 0.057 | [7] 0.031 | [8] -0.034 | [9] 0.002

PCBD2 (UniProt Q9H0N5)
inactive: erlotinib 0.014 | [1] -0.025 | [2] 0.031 | [3] -0.061 | [4] 0.052 | [5] 0.016 | [6] -0.016 | [7] -0.018 | [8] 0.012 | [9] 0.071

PANX1 (UniProt Q96RD7)
inactive: erlotinib -0.001 | [1] -0.013 | [2] 0.032 | [3] 0.032 | [4] 0.029 | [5] 0.014 | [6] -0.016 | [7] -0.018 | [8] -0.012 | [9] 0.094

PALM3 (UniProt A6NDB9)
inactive: erlotinib 0.004 | [1] -0.02 | [2] -0.032 | [3] 0.019 | [4] 0.018 | [5] 0.036 | [6] 0.053 | [7] -0.052 | [8] -0.066 | [9] 0.068

PANK2 (UniProt Q9BZ23)
inactive: erlotinib 0.057 | [1] 0.002 | [2] 0.055 | [3] 0.016 | [4] 0.039 | [5] -0.078 | [6] -0.121 | [7] -0.036 | [8] -0.046 | [9] 0.018

PDHX (UniProt O00330)
inactive: erlotinib -0.167 | [1] -0.177 | [2] -0.149 | [3] 0.022 | [4] -0.155 | [5] -0.045 | [6] -0.037 | [7] 0.089 | [8] -0.033 | [9] -0.179

PALMD (UniProt Q9NP74)
inactive: erlotinib 0.032 | [1] 0 | [2] 0.063 | [3] 0.035 | [4] 0.026 | [5] 0.103 | [6] -0.074 | [7] -0.008 | [8] 0.02 | [9] 0.11

PDZD8 (UniProt Q8NEN9)
inactive: erlotinib 0.011 | [1] 0.054 | [2] 0.028 | [3] 0.017 | [4] 0.012 | [5] 0.052 | [6] 0.05 | [7] 0 | [8] -0.006 | [9] -0.001

PEX14 (UniProt O75381)
inactive: erlotinib -0.013 | [1] 0 | [2] 0.112 | [3] 0.019 | [4] -0.002 | [5] 0.051 | [6] 0.04 | [7] 0.033 | [8] 0.009 | [9] 0.025

Fetched one by one from the list above (2):
PEX14 (UniProt O75381)
inactive: erlotinib -0.013 | [1] 0 | [2] 0.112 | [3] 0.019 | [4] -0.002 | [5] 0.051 | [6] 0.04 | [7] 0.033 | [8] 0.009 | [9] 0.025

PANK2 (UniProt Q9BZ23)
inactive: erlotinib 0.057 | [1] 0.002 | [2] 0.055 | [3] 0.016 | [4] 0.039 | [5] -0.078 | [6] -0.121 | [7] -0.036 | [8] -0.046 | [9] 0.018

Next part

PAK2 (UniProt Q13177)
inactive: erlotinib -0.024 | [1] 0.018 | [2] 0.037 | [3] -0.012 | [4] 0.01 | [5] -0.002 | [6] 0.003 | [7] -0.003 | [8] 0.005 | [9] 0.013

PCCA (UniProt P05165)
inactive: erlotinib 0.01 | [1] -0.029 | [2] 0.034 | [3] 0.038 | [4] 0.089 | [5] 0.061 | [6] 0.073 | [7] 0.035 | [8] -0.02 | [9] 0.038

PEBP1 (UniProt P30086)
inactive: erlotinib -0.006 | [1] -0.02 | [2] 0.046 | [3] 0.005 | [4] -0.024 | [5] 0.016 | [6] -0.007 | [7] 0.002 | [8] 0.033 | [9] 0.065

PAICS (UniProt P22234)
inactive: erlotinib 0.01 | [1] -0.019 | [2] 0.03 | [3] -0.002 | [4] 0.005 | [5] -0.013 | [6] -0.037 | [7] 0.02 | [8] 0.043 | [9] 0.041

PDXK (UniProt O00764)
inactive: erlotinib 0.006 | [1] -0.026 | [2] 0.073 | [3] 0.022 | [4] -0.011 | [5] -0.032 | [6] 0.034 | [7] 0.009 | [8] -0.01 | [9] 0.037

PCM1 isoform 5 (UniProt Q15154)
inactive: erlotinib -0.063 | [1] -0.113 | [2] -0.226 | [3] 0.016 | [4] -0.086 | [5] 0.028 | [6] -0.026 | [7] -0.078 | [8] -0.04 | [9] -0.024

PDHB (UniProt P11177)
inactive: erlotinib -0.093 | [1] -0.077 | [2] -0.091 | [3] 0.075 | [4] 0.026 | [5] -0.047 | [6] 0.004 | [7] 0.127 | [8] -0.075 | [9] -0.155
